The record followed here is patent US8927750B2, “Acyloxy- and phosphoryloxy-butadiene-Fe(CO)3 complexes as enzyme-triggered co-releasing molecules” (priority 2011, dated 2015).

Like-named read-outs stand apart in the source and are kept apart here.

What all share (assay type): biochemical
For one data set, the system named is pig liver esterase (PLE).
Data set [1] relates to lipase from Candida rugosa.
Data set [2] relates to lipase from Candida rugosa. Particulars: open tube, 10 mg complex, 20 mg lipase.
Where [3] appears, read: time 0 min, 12 mg complex, 15 mg enzyme.
Where [4] appears, read: time 110 min, 12 mg complex, 15 mg enzyme.

Regarding `CC(=O)OC1=CC(C)(C)CC(OC(C)=O)=C1.[C-]#[O+].[C-]#[O+].[C-]#[O+].[Fe]` [rac-13, reference compound], the “ee (%) of remaining starting material” value in the data set with pig liver esterase (PLE) (time 5 min, 13 mg complex, 0.8 mg enzyme) is listed as “—/10%”; with pig liver esterase (PLE) (time 15 min, 13 mg complex, 0.8 mg enzyme), 13%; in the data set on pig liver esterase (PLE) (time 30 min, 13 mg complex, 0.8 mg enzyme), 18%; in the data set on pig liver esterase (PLE) (time 45 min, 13 mg complex, 0.8 mg enzyme), 27%; with pig liver esterase (PLE) (time 150 min, 13 mg complex, 0.8 mg enzyme) it was 37%; in the data set on pig liver esterase (PLE) (time 210 min, 13 mg complex, 0.8 mg enzyme), 100%.

Take `CC(=O)OC1=CCCC=C1.[C-]#[O+].[C-]#[O+].[C-]#[O+].[Fe]` [rac-86, (RS)-[η^4-Cyclohexa-1,5-dien-1-yl-tricarbonyliron(0)]acetate]: the “ee (%) of remaining starting material” value in data set [1] (time 0 min, 8 mg enzyme) was 0/0%; in data set [1] (time 15 min, 8 mg enzyme) it was 51%; in data set [1] (time 30 min, 8 mg enzyme), 75%; in data set [1] (time 60 min, 8 mg enzyme), 93%; in data set [1] (time 110 min, 8 mg enzyme), 100%; in data set [1] (time 240 min, 8 mg enzyme), 100%. Besides, the “ee (%)” value in data set [2] (time 0 min) is given as 0/0%; in data set [2] (time 15 min) it was 62%; in data set [2] (time 30 min) it was 67%; in data set [2] (time 60 min), 70%; in data set [2] (time 110 min), 70%.

Take `CC(C)(C)C(=O)OC1=CCCC=C1.[C-]#[O+].[C-]#[O+].[C-]#[O+].[Fe]` [rac-87, (RS)-[η^4-Cyclohexa-1,5-dien-1-yl-tricarbonyliron(0)] pivalate]: the “ee (%) of remaining starting material” value in data set [1] (time 0 min, 8 mg enzyme) was 0/0%; in data set [1] (setting [3]), 0/0%; in data set [1] (time 30 min, 8 mg enzyme) it was 2%; in data set [1] (time 60 min, 8 mg enzyme) it was 5%; in data set [1] (time 110 min, 8 mg enzyme), 6%; in data set [1] (setting [4]), 14%. Further, the “ee (%) of remaining starting material” value was found to be 11% in data set [1] (time 240 min, 8 mg enzyme); 20% in data set [1] (time 240 min, 12 mg complex, 15 mg enzyme); 38% in data set [1] (time 24 h, 8 mg enzyme); 58% in data set [1] (time 24 h, 12 mg complex, 15 mg enzyme).

For `CC(=O)OC1=CC=CCC1.[C-]#[O+].[C-]#[O+].[C-]#[O+].[Fe]` [rac-96, (RS)-[θ^4-Cyclohexa-1,3-dien-1-yl-tricarbonyliron(0)]acetate], the “ee (%) of remaining starting material” value with pig liver esterase (PLE) (time 0 min, 10 mg complex, 1 mg enzyme) was determined as 5%; in the data set with pig liver esterase (PLE) (time 120 min, 10 mg complex, 1 mg enzyme), 11%; in the data set with pig liver esterase (PLE) (time 180 min, 10 mg complex, 1 mg enzyme), 17%; in the data set with pig liver esterase (PLE) (time 300 min, 10 mg complex, 1 mg enzyme) it was 35%; with pig liver esterase (PLE) (time 420 min, 10 mg complex, 1 mg enzyme), 69%; in the data set with pig liver esterase (PLE) (time 540 min, 10 mg complex, 1 mg enzyme), 73%. Moreover, the “ee (%) of remaining starting material” value with pig liver esterase (PLE) (time 660 min, 10 mg complex, 1 mg enzyme) is listed as 74%; in data set [1] (setting [3]), 0/0%; in data set [1] (time 15 min, 12 mg complex, 15 mg enzyme), 20%; in data set [1] (time 30 min, 12 mg complex, 15 mg enzyme), 30%; in data set [1] (time 60 min, 12 mg complex, 15 mg enzyme), 50%; in data set [1] (setting [4]), 70%. In addition, the “ee (%)” value was 0/0% in data set [2] (time 0 min); 43% in data set [2] (time 15 min); 71% in data set [2] (time 30 min); 96% in data set [2] (time 60 min); 100% in data set [2] (time 110 min).
